This is one part of the list. The main result of the screen is listed elsewhere. These columns were measured beside it and carry no call. Most of these compounds were active or inconclusive in the main read-out, so they are no random draw. The note in brackets gives the kind of curve behind each potency; many fits are weak.
Test: qHTS Assay for Lipid Storage Modulators in Drosophila S3 Cells;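 on cell number change: cells counted by Cell Tracker Red CMTPX staining in the red channel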
Settings: BODIPY lipid droplet fluorescence, 18-24 h; for cell number change: measured here: cell count max response, cells fed with added oleic acid
In short: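 Drosophila S3 cells loaded with oleic acid (400 uM, as added) and compounds at several concentrations; lipid droplets imaged by 488-nm laser-scanning cytometry, 500–530 nm intensity and object ratio to cell channel. Percent activity normalized to 20 uM Triacsin C.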

[1] = measured here: lipid fluorescence (Fed channel) AC50, cells fed with added oleic acid
[2] = measured here: cell number channel AC50, cells fed with added oleic acid

| SMILES | cell number change [%] | AC50 [1] | AC50 [2] |
| --- | --- | --- | --- |
| O=C(Cc1c(F)cccc1Cl)Nc1ccc(S(=O)(=O)N2CCOCC2)cc1 | 2.85 | – | – |
| CC(NC(=O)c1ccc(Br)o1)C1CC2CCC1C2 (configuration not stated) | -20.7 | – | – |
| CC(=O)Nc1ccc(C(=O)c2ccccc2)cc1 | -8.68 | 6.51 µM [rising, single point] | – |
| CC(=O)NC1CCN(C(=O)N2CCCC2)CC1 | 11.6 | – | – |
| Cc1ccnc(SCC(=O)Nc2oc(-c3ccccc3)c(-c3ccccc3)c2C#N)n1 | – | – | 2.06 µM [rising, partial curve] |
| CC(Sc1ncccn1)C(=O)Nc1ccc2c(c1)OCCO2 (configuration not stated) | -10.4 | – | 0.184 µM [falling, partial curve] |
| CN(C)C1=NCCN1CCc1ccc(F)cc1 | -14.6 | 20.6 µM [rising, single point] | – |
| CC(C)COc1ccc(C(=O)OCCN2CCOCC2)c(O)c1 | -27.6 | 29.1 µM [falling, single point] | 3.26 µM [falling, full curve, poor fit] |
| COCC(C)n1c(C)cc(C(=O)COC(=O)c2oc3ccccc3c2C)c1C (configuration not stated) | -21 | 29.1 µM [falling, single point] | – |
| COc1c(S(=O)(=O)N2CCN(C)CC2)ccc(Cl)c1Cl | 16.9 | – | – |
| COc1ccc(CCNC(=O)c2oc3ccc(S(=O)(=O)N4CCOCC4)cc3c2C)cc1OC | -30 | 23.1 µM [falling, single point] | – |
| CCOc1cc(CNCc2ccccc2)ccc1OCC(=O)NC1CCCCC1 | -8.67 | – | – |
| NC1=NC[C@H](CC2CCCCC2)N1CCc1cc(C(F)(F)F)cc(C(F)(F)F)c1 | -73 | 29.1 µM [falling, single point] | 29.1 µM [falling, single point] |
| CCOC(=O)/C(=C\c1ccc(Cl)cc1)c1nc2sc(C)c(C)c2c(=O)[nH]1 | -10.5 | 20.6 µM [falling, single point] | – |
| COc1ccc2nc(NC(=O)CSc3nnnn3C3CCCCC3)sc2c1 | 57.2 | 0.92 µM [rising, full curve] | 20.6 µM [rising, partial curve, poor fit] |
| CS(=O)(=O)c1ccccc1C(=O)Nc1ccc(-c2nc3ccccc3o2)cc1 | -13.1 | – | – |
| O=C(NCc1cccc(Cl)c1)c1cccc(OC2CCN(C(=O)C3CC3)CC2)c1 | -25.2 | 2.31 µM [falling, partial curve] | – |
| O=C(CNC(=O)c1ccc(Cl)cc1Cl)OCN1C(=O)c2ccccc2C1=O | 5.49 | 6.51 µM [falling, single point] | – |
| COc1cccc(CNS(=O)(=O)c2ccc3c(c2)NC(=O)CS3)c1 | -26.4 | 20.6 µM [falling, single point] | – |
| N#Cc1ccccc1Sc1ccccc1C(=O)OCC(=O)NC1CCCCC1 | 37.4 | 23.1 µM [falling, single point] | 16.4 µM [rising, partial curve] |

| SMILES | cell number change [%] | AC50 [1] | AC50 [2] |
| --- | --- | --- | --- |
| C=CCc1ccc(OCCCCOc2ccc(C(=O)O)cc2)c(OC)c1 | -44.6 | 29.1 µM [falling, single point] | 25.9 µM [falling, single point] |
| COc1ccc(CCN2C(=NC(=O)C(C)C)SC3CS(=O)(=O)CC32)cc1OC (configuration not stated) | 31.2 | – | – |
| Cc1ccccc1CN1[C@@H]2c3ccccc3C[C@@H]2OCCS1(=O)=O | 16.5 | – | – |
| COc1ccc(C2C(C(=O)c3cccs3)=C(O)C(=O)N2c2cccc(C)n2)cc1 (configuration not stated) | -57.4 | – | 8.2 µM [falling, partial curve] |
| O=C(CNC(=O)c1ccc(Cl)cc1Cl)NCc1ccccn1 | -17.2 | – | – |
| C[C@@]12CC(=O)NC1N(C(=O)c1ccccc1)C(c1ccccc1OC(=O)c1ccccc1)C2 (some centres not stated) | 14.8 | 29.1 µM [rising, single point] | – |
| O=S(=O)(c1ccc(NCCOCCO)nc1)N1CCCCC1 | -32.3 | 20.6 µM [falling, single point] | 18.4 µM [falling, single point] |
| CCOC(=O)N1CCN(c2cc(NCCO)c([N+](=O)[O-])c3nonc23)CC1 | 17.6 | – | – |
| O=C(NC(NC(=S)Nc1ccc(Cl)cc1)C(Cl)(Cl)Cl)c1ccco1 (configuration not stated) | -41.1 | 29.1 µM [falling, single point] | 32.6 µM [falling, single point] |
| Cc1cc(C(=O)CN2C(=O)c3ccccc3S2(=O)=O)c(C)n1CC1CCCO1 (configuration not stated) | 35.1 | – | 7.31 µM [rising, partial curve] |
| C/C(=N\NC(=O)c1nnn(-c2nonc2N)c1-c1ccccc1)c1cccnc1 | -1.7 | 3.26 µM [rising, single point] | – |
| COc1ccccc1N1CCN(C(=O)c2ccc(-c3ccc(Cl)cc3)o2)CC1 | -14.6 | – | 0.082 µM [rising, full curve, poor fit] |
| COc1ccc(O)c(/C=N/Nc2nc(Nc3ccccc3)nc(-n3nc(C)cc3C)n2)c1 | -39.7 | 20.6 µM [falling, partial curve] | 9.2 µM [falling, partial curve] |
| CC1CCc2cc(F)ccc2N1C(=O)CCl (configuration not stated) | 2.16 | 1.46 µM [falling, full curve] | 1.3 µM [falling, partial curve] |
| O=C(CCCCCN1C(=O)[C@@H]2Cc3ccccc3CN2C1=O)NCCc1ccccc1 | -4.72 | – | 5.8 µM [rising, single point] |
| CC(C)c1cc(N2CCOCC2)n2ncc(-c3ccccc3)c2n1 | 5.67 | – | – |
| O=C(O)C1CC=CCC1C(=O)NCCc1csc(-c2ccccc2)n1 (configuration not stated) | 21.9 | 0.651 µM [rising, full curve, poor fit] | – |
| Cc1ccc(NC(=O)C2CCC(CNC(=O)[C@@H]3Cc4ccccc4CN3)CC2)cc1 (some centres not stated) | 31.1 | – | 32.6 µM [rising, single point] |
| CC12CCC(=O)N1C(C(=O)OCC(=O)Nc1cccc(Br)c1)CS2 (configuration not stated) | -12.5 | 29.1 µM [falling, single point] | – |
| COC(c1ccccc1)c1nnc(CCC(=O)N(C)CCCC2CCCC2)o1 (configuration not stated) | -46.5 | – | 23.1 µM [falling, partial curve, poor fit] |

17 compounds from above, sorted by formula weight, largest number first.

| SMILES | cell number change [%] | AC50 [1] | AC50 [2] |
| --- | --- | --- | --- |
| C[C@@]12CC(=O)NC1N(C(=O)c1ccccc1)C(c1ccccc1OC(=O)c1ccccc1)C2 (some centres not stated) | 14.8 | 29.1 µM [rising, single point] | – |
| COc1ccc(O)c(/C=N/Nc2nc(Nc3ccccc3)nc(-n3nc(C)cc3C)n2)c1 | -39.7 | 20.6 µM [falling, partial curve] | 9.2 µM [falling, partial curve] |
| O=C(NC(NC(=S)Nc1ccc(Cl)cc1)C(Cl)(Cl)Cl)c1ccco1 (configuration not stated) | -41.1 | 29.1 µM [falling, single point] | 32.6 µM [falling, single point] |
| O=C(CCCCCN1C(=O)[C@@H]2Cc3ccccc3CN2C1=O)NCCc1ccccc1 | -4.72 | – | 5.8 µM [rising, single point] |
| CC12CCC(=O)N1C(C(=O)OCC(=O)Nc1cccc(Br)c1)CS2 (configuration not stated) | -12.5 | 29.1 µM [falling, single point] | – |
| COc1ccc(C2C(C(=O)c3cccs3)=C(O)C(=O)N2c2cccc(C)n2)cc1 (configuration not stated) | -57.4 | – | 8.2 µM [falling, partial curve] |
| Cc1cc(C(=O)CN2C(=O)c3ccccc3S2(=O)=O)c(C)n1CC1CCCO1 (configuration not stated) | 35.1 | – | 7.31 µM [rising, partial curve] |
| COc1ccccc1N1CCN(C(=O)c2ccc(-c3ccc(Cl)cc3)o2)CC1 | -14.6 | – | 0.082 µM [rising, full curve, poor fit] |
| C/C(=N\NC(=O)c1nnn(-c2nonc2N)c1-c1ccccc1)c1cccnc1 | -1.7 | 3.26 µM [rising, single point] | – |
| COC(c1ccccc1)c1nnc(CCC(=O)N(C)CCCC2CCCC2)o1 (configuration not stated) | -46.5 | – | 23.1 µM [falling, partial curve, poor fit] |
| CCOC(=O)N1CCN(c2cc(NCCO)c([N+](=O)[O-])c3nonc23)CC1 | 17.6 | – | – |
| O=C(O)C1CC=CCC1C(=O)NCCc1csc(-c2ccccc2)n1 (configuration not stated) | 21.9 | 0.651 µM [rising, full curve, poor fit] | – |
| Cc1ccccc1CN1[C@@H]2c3ccccc3C[C@@H]2OCCS1(=O)=O | 16.5 | – | – |
| O=C(CNC(=O)c1ccc(Cl)cc1Cl)NCc1ccccn1 | -17.2 | – | – |
| O=S(=O)(c1ccc(NCCOCCO)nc1)N1CCCCC1 | -32.3 | 20.6 µM [falling, single point] | 18.4 µM [falling, single point] |
| CC(C)c1cc(N2CCOCC2)n2ncc(-c3ccccc3)c2n1 | 5.67 | – | – |
| CC1CCc2cc(F)ccc2N1C(=O)CCl (configuration not stated) | 2.16 | 1.46 µM [falling, full curve] | 1.3 µM [falling, partial curve] |

The listing continues:

| SMILES | cell number change [%] | AC50 [1] | AC50 [2] |
| --- | --- | --- | --- |
| CCOc1ccc(CCNC(=O)C(C)n2nc(C)c3c(C)n(-c4ccccc4)nc3c2=O)cc1 (configuration not stated) | -12.4 | 16.4 µM [falling, single point] | – |
| CCn1c(SCC(=O)Nc2nnc(C)s2)nnc1C(C)NC(=O)c1ccccc1 (configuration not stated) | 22.6 | – | – |
| CCN(CC)CCSc1nnc2c3ccccc3n(Cc3ccccc3)c2n1 | 4.97 | 0.00517 µM [rising, full curve, poor fit] | – |
| N/C(=N\OC(=O)Cc1ccc([N+](=O)[O-])cc1)c1ccccn1 | 51.4 | 29.1 µM [rising, single point] | 8.2 µM [rising, partial curve] |
| CCC1CCc2c(n(C)c3ccccc3c2=O)O1 (configuration not stated) | -3.54 | 2.31 µM [rising, full curve] | – |
| O=C(c1ccc(CS(=O)(=O)c2ccc(Br)cc2)o1)N1CCN(c2ccccn2)CC1 | -1.98 | 7.31 µM [rising, partial curve] | – |
| Cc1ccc(CSc2nc3c(c(SCC(=O)O)n2)CCCC3)cc1 | 18.4 | 18.4 µM [falling, single point] | – |
| Cc1nn(Cc2cccc(C(=O)Nc3ccn(Cc4ccccc4)n3)c2)c(C)c1[N+](=O)[O-] | 32.6 | 0.58 µM [rising, single point] | 1.84 µM [rising, full curve, poor fit] |
| CCCN(C(=O)C1CC(=O)N(c2ccccc2C(C)CC)C1)C1CCS(=O)(=O)C1 (configuration not stated) | 10.2 | 0.461 µM [rising, full curve, poor fit] | – |
| COc1cc(O)oc1C=Nc1ccc(C(=O)O)cc1 | 6.15 | – | – |
| O=C(Cc1ccc(S(=O)(=O)N2CCOCC2)s1)Nc1cc(C(F)(F)F)cc(C(F)(F)F)c1 | 4.03 | 1.84 µM [falling, partial curve] | 1.64 µM [falling, partial curve] |
| O=C(Nc1ccccc1F)C1CCCN1S(=O)(=O)c1ccc(Cl)cc1 (configuration not stated) | -8.25 | 0.92 µM [falling, full curve, poor fit] | – |
| CCOC(=O)C1CCCN(Cc2nc(N)nc(Nc3ccc(C)cc3)n2)C1 (configuration not stated) | – | 2.91 µM [rising, partial curve] | 4.11 µM [rising, single point] |
| CC(C)c1nc2sc3c(c2c(=O)[nH]1)CC(C)(C)OC3 | 25.4 | 2.91 µM [rising, single point] | 3.26 µM [rising, single point] |
| Cc1c(NC(=O)CCSc2ccc(Cl)cc2)c(=O)n(-c2ccccc2)n1C | – | – | 0.13 µM [falling, full curve, poor fit] |
| CC1CCN(S(=O)(=O)c2ccc3c(c2)N(CC(=O)NCc2cccnc2)C(=O)CS3)CC1 | 15.5 | 0.231 µM [rising, full curve, poor fit] | – |
| FC(F)(F)c1ccccc1NC(=S)N1CCN(c2ncccn2)CC1 | 15.6 | 29.1 µM [rising, single point] | – |
| C/C(CC(=O)Nc1ccc2c(c1)OCCO2)=N\NC(=O)c1ccccn1 | -7.51 | 2.31 µM [falling, single point] | – |
| Cc1ccc(S(=O)(=O)N2CCCC(C(=O)N3CCN(C)CC3)C2)cc1 (configuration not stated) | – | 35.5 µM [rising, single point] | – |
| Cc1ccc(-n2c(C)cc(C(=O)COC(=O)c3c(C)noc3C)c2C)cc1 | -26.9 | 29.1 µM [falling, single point] | – |

From PubChem BioAssay AID2685 (National Center for Advancing Translational Sciences (NCATS), 2010)
